Data reported in the supplement of paper PMC10849652.
The other results are listed elsewhere or left out.

Amino acid sequences for entries named in this document (tags omitted). A change or cut given only in a name is not applied to a line headed by its entry.
UniProt P57088: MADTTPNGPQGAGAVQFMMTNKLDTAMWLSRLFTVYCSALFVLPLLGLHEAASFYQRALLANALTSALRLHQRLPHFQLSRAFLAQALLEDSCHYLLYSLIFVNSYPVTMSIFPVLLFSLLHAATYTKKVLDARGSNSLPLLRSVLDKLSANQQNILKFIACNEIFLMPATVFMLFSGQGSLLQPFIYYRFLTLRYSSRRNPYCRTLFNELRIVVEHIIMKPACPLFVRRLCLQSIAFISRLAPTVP
UniProt O96008: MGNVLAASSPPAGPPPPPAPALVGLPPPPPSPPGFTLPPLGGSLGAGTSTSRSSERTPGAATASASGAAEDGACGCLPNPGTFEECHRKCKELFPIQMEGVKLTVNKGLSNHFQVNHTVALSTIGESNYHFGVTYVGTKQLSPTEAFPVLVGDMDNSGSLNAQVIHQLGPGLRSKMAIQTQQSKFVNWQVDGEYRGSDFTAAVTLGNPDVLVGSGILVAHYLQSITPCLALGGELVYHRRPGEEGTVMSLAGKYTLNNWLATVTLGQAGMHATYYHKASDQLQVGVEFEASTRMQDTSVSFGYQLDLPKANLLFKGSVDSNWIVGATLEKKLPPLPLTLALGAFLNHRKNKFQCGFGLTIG
UniProt Q96S44: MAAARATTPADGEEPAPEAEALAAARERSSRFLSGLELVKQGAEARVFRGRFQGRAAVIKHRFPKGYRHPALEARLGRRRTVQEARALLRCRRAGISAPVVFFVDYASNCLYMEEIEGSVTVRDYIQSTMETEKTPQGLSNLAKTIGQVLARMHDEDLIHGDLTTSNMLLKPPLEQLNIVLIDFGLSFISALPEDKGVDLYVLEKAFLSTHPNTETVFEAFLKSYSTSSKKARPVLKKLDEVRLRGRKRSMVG
UniProt Q96HV5: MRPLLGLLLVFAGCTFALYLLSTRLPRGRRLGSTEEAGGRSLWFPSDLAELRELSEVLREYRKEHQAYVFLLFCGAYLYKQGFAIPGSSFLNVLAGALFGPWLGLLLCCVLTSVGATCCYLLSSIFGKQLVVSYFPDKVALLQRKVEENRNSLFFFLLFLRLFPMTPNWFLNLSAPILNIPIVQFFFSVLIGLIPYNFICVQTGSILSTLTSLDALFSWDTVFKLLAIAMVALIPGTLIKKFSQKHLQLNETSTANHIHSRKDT
UniProt O94842: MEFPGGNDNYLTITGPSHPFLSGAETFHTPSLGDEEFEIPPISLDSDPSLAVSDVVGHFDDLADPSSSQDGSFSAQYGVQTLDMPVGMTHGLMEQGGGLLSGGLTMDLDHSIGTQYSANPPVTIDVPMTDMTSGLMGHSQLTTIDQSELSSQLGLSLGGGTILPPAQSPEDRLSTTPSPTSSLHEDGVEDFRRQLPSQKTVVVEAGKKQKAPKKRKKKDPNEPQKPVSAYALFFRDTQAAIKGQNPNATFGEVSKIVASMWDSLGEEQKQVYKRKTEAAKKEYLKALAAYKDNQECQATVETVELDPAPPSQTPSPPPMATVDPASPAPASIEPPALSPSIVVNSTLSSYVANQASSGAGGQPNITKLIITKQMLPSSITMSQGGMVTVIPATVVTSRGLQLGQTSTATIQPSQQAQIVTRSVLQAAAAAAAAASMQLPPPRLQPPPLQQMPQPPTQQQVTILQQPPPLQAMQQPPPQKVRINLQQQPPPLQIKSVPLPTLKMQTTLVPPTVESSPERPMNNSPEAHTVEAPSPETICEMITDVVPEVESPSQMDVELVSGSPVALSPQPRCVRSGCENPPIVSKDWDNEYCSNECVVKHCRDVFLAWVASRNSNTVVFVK
UniProt P13693: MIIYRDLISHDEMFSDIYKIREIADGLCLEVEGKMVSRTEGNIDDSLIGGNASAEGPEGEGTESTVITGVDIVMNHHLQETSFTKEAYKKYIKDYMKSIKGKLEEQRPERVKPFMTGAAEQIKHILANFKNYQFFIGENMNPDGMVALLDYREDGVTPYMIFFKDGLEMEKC
UniProt Q15025: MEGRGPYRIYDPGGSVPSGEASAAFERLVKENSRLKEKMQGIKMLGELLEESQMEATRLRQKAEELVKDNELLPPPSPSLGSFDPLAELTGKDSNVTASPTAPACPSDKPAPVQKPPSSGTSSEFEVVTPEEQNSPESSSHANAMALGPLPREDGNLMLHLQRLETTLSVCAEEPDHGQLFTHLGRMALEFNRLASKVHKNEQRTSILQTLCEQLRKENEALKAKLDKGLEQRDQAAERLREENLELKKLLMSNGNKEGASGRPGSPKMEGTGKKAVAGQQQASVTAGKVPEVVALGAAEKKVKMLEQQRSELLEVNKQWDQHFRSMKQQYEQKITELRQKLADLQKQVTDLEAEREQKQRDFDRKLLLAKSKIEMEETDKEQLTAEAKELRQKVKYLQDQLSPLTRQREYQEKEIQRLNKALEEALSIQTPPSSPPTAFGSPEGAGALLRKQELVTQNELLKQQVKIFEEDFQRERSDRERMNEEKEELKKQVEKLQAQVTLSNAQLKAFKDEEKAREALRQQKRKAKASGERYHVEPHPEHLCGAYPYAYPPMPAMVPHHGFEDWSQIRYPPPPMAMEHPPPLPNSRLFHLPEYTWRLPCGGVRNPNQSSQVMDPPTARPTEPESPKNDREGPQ
UniProt O00220, whole entry, looked up: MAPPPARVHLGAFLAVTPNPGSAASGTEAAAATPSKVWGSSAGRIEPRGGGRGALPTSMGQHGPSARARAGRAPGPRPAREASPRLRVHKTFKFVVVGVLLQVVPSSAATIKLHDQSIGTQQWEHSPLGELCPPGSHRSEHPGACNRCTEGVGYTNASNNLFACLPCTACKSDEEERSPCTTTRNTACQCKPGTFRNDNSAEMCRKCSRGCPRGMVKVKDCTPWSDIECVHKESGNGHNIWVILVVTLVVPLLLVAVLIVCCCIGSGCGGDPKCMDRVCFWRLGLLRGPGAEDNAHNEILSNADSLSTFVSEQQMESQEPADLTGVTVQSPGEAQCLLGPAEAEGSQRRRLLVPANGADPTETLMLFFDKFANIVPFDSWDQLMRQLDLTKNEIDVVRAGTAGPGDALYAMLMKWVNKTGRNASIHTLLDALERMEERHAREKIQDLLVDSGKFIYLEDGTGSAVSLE
UniProt P82094: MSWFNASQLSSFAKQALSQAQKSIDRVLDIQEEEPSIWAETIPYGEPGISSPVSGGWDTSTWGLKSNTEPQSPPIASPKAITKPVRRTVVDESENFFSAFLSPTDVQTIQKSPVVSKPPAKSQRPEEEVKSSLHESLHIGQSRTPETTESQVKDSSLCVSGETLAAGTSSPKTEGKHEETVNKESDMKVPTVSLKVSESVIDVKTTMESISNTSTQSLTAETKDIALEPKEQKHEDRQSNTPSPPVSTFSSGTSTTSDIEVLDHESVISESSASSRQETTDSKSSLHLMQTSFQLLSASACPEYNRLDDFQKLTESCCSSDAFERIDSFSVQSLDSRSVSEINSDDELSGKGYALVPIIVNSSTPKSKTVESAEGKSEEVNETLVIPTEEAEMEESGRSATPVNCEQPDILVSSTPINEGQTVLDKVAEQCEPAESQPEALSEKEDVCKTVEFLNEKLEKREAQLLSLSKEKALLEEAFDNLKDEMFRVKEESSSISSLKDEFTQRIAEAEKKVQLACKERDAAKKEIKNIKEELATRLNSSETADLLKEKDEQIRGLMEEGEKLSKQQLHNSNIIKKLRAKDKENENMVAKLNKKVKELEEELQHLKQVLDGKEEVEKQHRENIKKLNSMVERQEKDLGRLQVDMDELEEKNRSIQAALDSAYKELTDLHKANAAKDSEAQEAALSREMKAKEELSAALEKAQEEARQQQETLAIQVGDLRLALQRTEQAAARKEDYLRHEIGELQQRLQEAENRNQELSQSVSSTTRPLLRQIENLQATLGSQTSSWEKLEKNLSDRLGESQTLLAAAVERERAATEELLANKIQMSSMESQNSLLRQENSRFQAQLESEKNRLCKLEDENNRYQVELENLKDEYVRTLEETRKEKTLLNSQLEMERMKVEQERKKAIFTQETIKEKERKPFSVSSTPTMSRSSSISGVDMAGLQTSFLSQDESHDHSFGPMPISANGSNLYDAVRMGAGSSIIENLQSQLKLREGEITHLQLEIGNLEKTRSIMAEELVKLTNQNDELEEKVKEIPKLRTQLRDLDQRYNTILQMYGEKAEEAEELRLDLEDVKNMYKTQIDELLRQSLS
UniProt O14656: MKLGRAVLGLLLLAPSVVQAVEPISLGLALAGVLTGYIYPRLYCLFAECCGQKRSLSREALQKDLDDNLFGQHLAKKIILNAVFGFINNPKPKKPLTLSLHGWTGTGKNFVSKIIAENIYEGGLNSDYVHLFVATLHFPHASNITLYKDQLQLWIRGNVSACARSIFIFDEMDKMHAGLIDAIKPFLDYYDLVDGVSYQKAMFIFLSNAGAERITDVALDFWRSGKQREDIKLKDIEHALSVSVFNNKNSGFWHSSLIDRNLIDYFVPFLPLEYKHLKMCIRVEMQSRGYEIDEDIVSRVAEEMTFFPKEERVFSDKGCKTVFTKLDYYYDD
UniProt P42166: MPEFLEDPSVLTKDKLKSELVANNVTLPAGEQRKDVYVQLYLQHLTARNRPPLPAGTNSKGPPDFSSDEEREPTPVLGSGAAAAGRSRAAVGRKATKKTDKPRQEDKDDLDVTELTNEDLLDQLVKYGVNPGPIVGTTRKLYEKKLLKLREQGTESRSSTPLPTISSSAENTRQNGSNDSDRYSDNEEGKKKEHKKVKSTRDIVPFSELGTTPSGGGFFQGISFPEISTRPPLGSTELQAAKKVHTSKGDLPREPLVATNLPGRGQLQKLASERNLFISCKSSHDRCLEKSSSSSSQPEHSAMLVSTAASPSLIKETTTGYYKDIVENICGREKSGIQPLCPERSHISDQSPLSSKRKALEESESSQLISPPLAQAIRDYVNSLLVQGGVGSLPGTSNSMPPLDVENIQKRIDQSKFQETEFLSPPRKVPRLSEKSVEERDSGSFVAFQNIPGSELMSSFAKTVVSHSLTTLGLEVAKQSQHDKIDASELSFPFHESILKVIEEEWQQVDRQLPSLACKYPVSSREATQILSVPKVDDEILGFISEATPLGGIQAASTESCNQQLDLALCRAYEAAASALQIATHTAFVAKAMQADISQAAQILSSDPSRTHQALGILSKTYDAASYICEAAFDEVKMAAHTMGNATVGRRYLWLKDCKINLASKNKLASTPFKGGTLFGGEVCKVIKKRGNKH
UniProt Q96MH6: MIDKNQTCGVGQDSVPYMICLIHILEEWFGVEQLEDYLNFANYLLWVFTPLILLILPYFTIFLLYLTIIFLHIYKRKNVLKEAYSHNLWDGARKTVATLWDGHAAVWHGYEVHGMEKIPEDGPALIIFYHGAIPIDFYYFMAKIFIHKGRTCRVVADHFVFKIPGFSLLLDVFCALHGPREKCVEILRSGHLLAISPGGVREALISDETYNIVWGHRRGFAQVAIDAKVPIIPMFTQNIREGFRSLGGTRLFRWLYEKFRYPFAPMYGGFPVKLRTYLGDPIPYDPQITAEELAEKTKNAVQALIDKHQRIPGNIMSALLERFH
UniProt Q9H496: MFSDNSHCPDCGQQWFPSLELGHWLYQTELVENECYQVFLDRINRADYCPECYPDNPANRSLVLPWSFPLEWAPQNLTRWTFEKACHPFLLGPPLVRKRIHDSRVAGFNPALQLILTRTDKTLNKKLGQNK
UniProt P28289: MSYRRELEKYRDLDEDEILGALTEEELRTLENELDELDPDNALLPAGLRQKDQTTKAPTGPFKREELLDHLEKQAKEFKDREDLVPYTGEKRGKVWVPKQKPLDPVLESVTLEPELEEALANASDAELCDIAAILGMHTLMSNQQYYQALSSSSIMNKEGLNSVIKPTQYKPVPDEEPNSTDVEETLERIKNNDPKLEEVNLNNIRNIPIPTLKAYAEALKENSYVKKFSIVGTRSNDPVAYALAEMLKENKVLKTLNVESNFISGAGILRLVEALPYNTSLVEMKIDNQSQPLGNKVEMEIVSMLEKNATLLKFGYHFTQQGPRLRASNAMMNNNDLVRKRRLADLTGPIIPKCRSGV

Assays:
Test in all cases: log2 fold change, soluble protein after heating vs DMSO (PISA); higher = thermal stabilisation; K562 lysate, 10 uM; active = over 0.2 and 3.5 SD of the protein, either way, in both replicates (recomputed)
[1] = compound: C=CC(=O)N1CCC[C@@H](n2nc(-c3ccc(Oc4ccccc4)cc3)c3c(N)ncnc32)C1 [ibrutinib]
In short: (§1)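 K562 pellets were dounce-homogenised in PBS pH 7.4 with 1 mM MgCl2, and the crude extract at 1 mg/mL protein was treated with 10 μM compound for 30 min. Aliquots were heated for 3 min across 48°C-58°C, pooled, and brought to 0.5% NP-40 at 4°C; soluble protein was the supernatant after 21,000xg for 90 min. Soluble protein was quantified by TMTpro 16plex LC-MS/MS with channel sums equalised, and reported as log2 fold change in thermal stability against DMSO controls, with values from duplicates.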

[2] = compound: CC(=O)c1cnc2ccc(-c3cc(Cl)c(O)c(Cl)c3)nc2c1N[C@H]1CC[C@H](CN(C)C)CC1
In short: as §1

[3] = compound: CC(C)(C)Cn1c(N)nc2ccc(-c3[nH]c(C(C)(C)C)nc3-c3ccc(F)cc3)nc21 [ralimetinib]
In short: as §1

[4] = compound: CC(C)(O)CC(=O)NCCn1ccc2ncnc(Nc3ccc(Oc4cccc(C(F)(F)F)c4)c(Cl)c3)c21
In short: as §1

[5] = compound: CC(C)C1=C2N=C(C=C(N2N=C1)NCC3=CC=CC=C3)NCCCCCCN
In short: as §1

[6] = compound: CC1=C(C(CC(=O)N1)C2=CC=C(C=C2)C(F)(F)F)C(=O)NC3=C(C=C4C(=C3)C=NN4)F
In short: as §1

[7] = compound: CC1=C(C2=C(C=C1)C(=O)C3=CC=CC=C3N2CCCN)C
In short: as §1

[8] = compound: CC1=C(C=C(C=C1)NC(=O)C2=CC(=CC=C2)C(C)(C)C#N)NC3=CC4=C(C=C3)N=CN(C4=O)C
In short: as §1

[9] = compound: CC1=C(C=C(C=C1)NC(=O)C2=CC(=CC=C2)N(C)C)NC(=O)C3=CC=C(C=C3)O
In short: as §1

[10] = compound: CC1=CC=C(C=C1)SC2=C3C=C(SC3=CN=C2)C(=O)N
In short: as §1

[11] = compound: CCCS(=O)(=O)Nc1ccc(F)c(C(=O)c2c[nH]c3ncc(-c4ccc(Cl)cc4)cc23)c1F [vemurafenib]
In short: as §1

[12] = compound: CCCS(=O)(=O)Nc1ccc(F)c(C(=O)c2c[nH]c3ncc(Cl)cc23)c1F
In short: as §1

[13] = compound: CCN(CCCOc1ccc2c(Nc3cc(CC(=O)Nc4cccc(F)c4)[nH]n3)ncnc2c1)CCOP(=O)(O)O [barasertib]
In short: as §1

[14] = compound: CC[C@@H]1C(=O)N(C)c2cnc(Nc3ccc(C(=O)NC4CCN(C)CC4)cc3OC)nc2N1C1CCCC1
In short: as §1

[15] = compound: CC[C@@H]1C(=O)N(C)c2cnc(Nc3ccc(C(=O)N[C@H]4CC[C@H](N5CCN(CC6CC6)CC5)CC4)cc3OC)nc2N1C(C)C [volasertib]
In short: as §1

[16] = compound: CCn1c(C(=O)N(C2CC2)C2CC2)cc2c3c(ncn3C)c(Nc3cc(C)n(C)n3)nc21
In short: as §1

[17] = compound: CCn1cc(-c2ccnc3[nH]c(-c4cccc(CN(C)C)c4)cc23)c(-c2ccc(NC(=O)N(C)C)cc2)n1
In short: as §1

[18] = compound: CN1CCC(CNc2ccc3ncc(-c4cccc(OC(F)(F)F)c4)n3n2)CC1
In short: as §1

[19] = compound: CN1CCN(CCOc2cc(OC3CCOCC3)c3c(Nc4c(Cl)ccc5c4OCO5)ncnc3c2)CC1 [saracatinib]
In short: as §1

[20] = compound: CN1CCN(c2nc(C3=C(c4c[nH]c5ccccc45)C(=O)NC3=O)c3ccccc3n2)CC1 [sotrastaurin]
In short: as §1

Target | log2 fold change [1] | log2 fold change [2] | log2 fold change [3] | log2 fold change [4] | log2 fold change [5] | log2 fold change [6] | log2 fold change [7] | log2 fold change [8] | log2 fold change [9] | log2 fold change [10] | log2 fold change [11] | log2 fold change [12] | log2 fold change [13] | log2 fold change [14] | log2 fold change [15] | log2 fold change [16] | log2 fold change [17] | log2 fold change [18] | log2 fold change [19] | log2 fold change [20]
TNIK isoform 4 (UniProt Q9UKE5) | inactive: 0.008 | active: 0.374 | inactive: -0.024 | inactive: -0.005 | inactive: 0.046 | inactive: -0.013 | inactive: -0.019 | inactive: 0.186 | inactive: -0.012 | inactive: -0.068 | inactive: 0.002 | inactive: -0.015 | inactive: -0.034 | inactive: 0.025 | inactive: 0 | inactive: 0.011 | inactive: 0.071 | inactive: 0.099 | inactive: 0.071 | inactive: 0.056
TMEM33 (UniProt P57088) | inactive: 0.019 | inactive: -0.014 | inactive: -0.001 | inactive: 0.032 | inactive: 0.029 | inactive: 0.01 | inactive: -0.065 | inactive: 0.024 | inactive: -0.027 | inactive: -0.01 | inactive: -0.004 | inactive: 0.001 | inactive: 0.024 | inactive: 0 | inactive: 0.031 | inactive: -0.042 | inactive: -0.063 | inactive: 0.034 | inactive: -0.019 | inactive: 0.017
TOMM40 (UniProt O96008) | inactive: 0.015 | inactive: 0.004 | inactive: -0.008 | inactive: -0.028 | inactive: -0.003 | inactive: -0.034 | inactive: -0.015 | inactive: 0.025 | inactive: -0.016 | inactive: -0.012 | inactive: 0.004 | inactive: 0.015 | inactive: -0.026 | inactive: 0.021 | inactive: 0.017 | inactive: -0.023 | inactive: -0.034 | inactive: 0.062 | inactive: 0.015 | inactive: -0.025
TP53RK (UniProt Q96S44) | inactive: 0.02 | inactive: -0.059 | inactive: 0.019 | inactive: -0.008 | inactive: 0.007 | inactive: -0.013 | inactive: -0.004 | inactive: 0 | inactive: -0.02 | inactive: -0.071 | inactive: -0.018 | inactive: 0.047 | inactive: 0 | inactive: -0.058 | inactive: -0.002 | inactive: 0.013 | inactive: 0.025 | inactive: -0.039 | inactive: -0.049 | inactive: -0.023
TMEM41A (UniProt Q96HV5) | inactive: 0.048 | inactive: 0.045 | inactive: 0.058 | inactive: 0.005 | inactive: -0.077 | inactive: 0.011 | inactive: -0.156 | inactive: -0.05 | inactive: -0.002 | inactive: 0.016 | inactive: -0.008 | inactive: 0.017 | inactive: -0.019 | inactive: -0.052 | inactive: 0.026 | inactive: -0.023 | inactive: -0.166 | inactive: 0.161 | inactive: -0.042 | inactive: 0.003
TOX4 (UniProt O94842) | inactive: -0.009 | inactive: 0.054 | inactive: 0.009 | inactive: -0.034 | inactive: -0.008 | inactive: 0.024 | inactive: -0.002 | inactive: 0.033 | inactive: 0.023 | inactive: 0.006 | inactive: -0.019 | inactive: 0.005 | inactive: 0.017 | inactive: 0.06 | inactive: -0.027 | inactive: -0.018 | inactive: -0.235 | inactive: 0.147 | inactive: 0.041 | inactive: 0.005
TPT1 (UniProt P13693) | inactive: -0.012 | inactive: 0.005 | inactive: -0.015 | inactive: -0.015 | inactive: -0.001 | inactive: -0.017 | inactive: -0.006 | inactive: 0.033 | inactive: 0.011 | inactive: -0.005 | inactive: 0.017 | inactive: -0.012 | inactive: 0.006 | inactive: 0.048 | inactive: -0.001 | inactive: -0.03 | inactive: 0.094 | inactive: -0.008 | inactive: -0.023 | inactive: 0.029
TNIP1 (UniProt Q15025) | inactive: 0.074 | inactive: -0.076 | inactive: 0.025 | inactive: -0.04 | inactive: 0.023 | inactive: 0.002 | inactive: 0.02 | inactive: -0.061 | inactive: 0.036 | inactive: 0.085 | inactive: -0.013 | inactive: -0.031 | inactive: 0.028 | inactive: 0.001 | inactive: 0.04 | inactive: -0.007 | inactive: -0.159 | inactive: 0.011 | inactive: 0.038 | inactive: 0.022
TOE1 (UniProt Q96GM8) | inactive: 0.011 | inactive: -0.001 | inactive: 0.007 | inactive: 0.003 | inactive: 0.008 | inactive: -0.061 | inactive: -0.023 | inactive: -0.02 | inactive: 0.014 | inactive: 0.011 | inactive: 0.052 | inactive: 0.018 | inactive: -0.053 | inactive: -0.051 | inactive: -0.031 | inactive: -0.042 | inactive: -0.022 | inactive: -0.005 | inactive: -0.029 | inactive: 0.007
TNFRSF10A (UniProt O00220) | inactive: -0.016 | inactive: -0.015 | inactive: 0.031 | inactive: -0.069 | inactive: 0.048 | inactive: 0.059 | inactive: -0.006 | inactive: 0 | inactive: 0.028 | inactive: 0.007 | inactive: -0.018 | inactive: 0.006 | inactive: 0.056 | inactive: -0.024 | inactive: 0.003 | inactive: 0.002 | inactive: 0.062 | inactive: -0.042 | inactive: 0.01 | inactive: -0.017
TMF1 isoform 2 (UniProt P82094) | inactive: 0.024 | inactive: 0.005 | inactive: 0.004 | inactive: 0.016 | inactive: 0.013 | inactive: -0.071 | inactive: -0.012 | inactive: 0.029 | inactive: -0.007 | inactive: -0.03 | inactive: 0.01 | inactive: 0.023 | inactive: 0.01 | inactive: 0.076 | inactive: -0.01 | inactive: -0.015 | inactive: -0.028 | inactive: 0.019 | inactive: 0.01 | inactive: 0.001
TOR1A (UniProt O14656) | inactive: -0.031 | inactive: -0.016 | inactive: 0.02 | inactive: -0.048 | inactive: 0.046 | inactive: 0.013 | inactive: 0.001 | inactive: -0.003 | inactive: -0.008 | inactive: 0.01 | inactive: 0.029 | inactive: -0.009 | inactive: -0.014 | inactive: -0.002 | inactive: -0.014 | inactive: 0.044 | inactive: -0.009 | inactive: 0.018 | inactive: 0.011 | inactive: 0.004
TMPO (UniProt P42166) | inactive: -0.025 | inactive: -0.018 | inactive: -0.087 | inactive: -0.004 | inactive: 0.018 | inactive: 0.011 | inactive: 0 | inactive: 0.024 | inactive: 0.047 | inactive: -0.026 | inactive: 0.027 | inactive: -0.004 | inactive: 0.04 | inactive: -0.041 | inactive: -0.025 | inactive: 0.033 | inactive: 0.026 | inactive: 0.003 | inactive: -0.017 | inactive: -0.161
TMEM68 (UniProt Q96MH6) | inactive: -0.008 | inactive: 0.017 | inactive: 0.118 | inactive: -0.058 | inactive: -0.055 | inactive: 0.042 | inactive: 0.003 | inactive: -0.023 | inactive: 0.019 | inactive: -0.035 | inactive: 0.076 | inactive: 0.066 | inactive: 0.036 | inactive: 0.044 | inactive: 0 | inactive: 0.033 | inactive: -0.093 | inactive: 0.042 | inactive: -0.014 | inactive: -0.003
TOR1AIP2 (UniProt Q9H496) | inactive: -0.14 | inactive: 0.106 | inactive: 0.017 | inactive: 0.073 | inactive: -0.032 | inactive: -0.103 | inactive: -0.083 | inactive: 0.095 | inactive: 0.001 | inactive: 0.096 | inactive: 0.129 | inactive: -0.106 | inactive: 0.028 | inactive: -0.035 | inactive: 0.376 | inactive: -0.01 | inactive: -0.086 | inactive: -0.081 | inactive: 0 | inactive: -0.011
TMOD1 (UniProt P28289) | inactive: 0.002 | inactive: 0.007 | inactive: -0.015 | inactive: -0.02 | inactive: 0 | inactive: -0.004 | inactive: 0.006 | inactive: 0 | inactive: 0.016 | inactive: -0.019 | inactive: -0.015 | inactive: -0.02 | inactive: 0.027 | inactive: -0.027 | inactive: -0.031 | inactive: -0.024 | inactive: 0.041 | inactive: -0.031 | inactive: -0.001 | inactive: -0.017

Fetched one by one from above:
Target | log2 fold change [1] | log2 fold change [2] | log2 fold change [3] | log2 fold change [4] | log2 fold change [5] | log2 fold change [6] | log2 fold change [7] | log2 fold change [8] | log2 fold change [9] | log2 fold change [10] | log2 fold change [11] | log2 fold change [12] | log2 fold change [13] | log2 fold change [14] | log2 fold change [15] | log2 fold change [16] | log2 fold change [17] | log2 fold change [18] | log2 fold change [19] | log2 fold change [20]
TOR1A (UniProt O14656) | inactive: -0.031 | inactive: -0.016 | inactive: 0.02 | inactive: -0.048 | inactive: 0.046 | inactive: 0.013 | inactive: 0.001 | inactive: -0.003 | inactive: -0.008 | inactive: 0.01 | inactive: 0.029 | inactive: -0.009 | inactive: -0.014 | inactive: -0.002 | inactive: -0.014 | inactive: 0.044 | inactive: -0.009 | inactive: 0.018 | inactive: 0.011 | inactive: 0.004
TMEM41A (UniProt Q96HV5) | inactive: 0.048 | inactive: 0.045 | inactive: 0.058 | inactive: 0.005 | inactive: -0.077 | inactive: 0.011 | inactive: -0.156 | inactive: -0.05 | inactive: -0.002 | inactive: 0.016 | inactive: -0.008 | inactive: 0.017 | inactive: -0.019 | inactive: -0.052 | inactive: 0.026 | inactive: -0.023 | inactive: -0.166 | inactive: 0.161 | inactive: -0.042 | inactive: 0.003
